Results reported in patent US20170152289 (published 2017).
Non-standard residues stand in square brackets, D forms with d. Dmt = Cc1cc(O)cc(C)c1C[C@H](N)C(=O)O

Test: general procedure: solution-phase peptide synthesis; TBTU
[1] = late stage modification step, HPLC, trifluoroacetate salt

Substance | final HPLC purity (coupling step, trifluoroacetate salt) | crude purity (method not given) [1] | final purity (method not given) [1] | crude HPLC purity (late stage modification step, TFA salt)
Boc-D-Arg-Dmt(Boc)-Lys(Boc)-Phe-NH2 | 98.2% | – | – | –
H-[dR][Dmt]KF-NH2 | – | 97% | 99% | 96.6%
